Results as given in PubChem BioAssay AID2685 (National Center for Advancing Translational Sciences (NCATS), 2010).
Some of the results follow. The main result of the screen is listed elsewhere. These columns were measured beside it and carry no call. Compounds called inactive in the main read-out are mostly missing here. The note in brackets gives the kind of curve behind each potency; many fits are weak.

Assay: qHTS Assay for Lipid Storage Modulators in Drosophila S3 Cells;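 for cell number change: cells counted by Cell Tracker Red CMTPX staining in the red channel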
Details: BODIPY lipid droplet fluorescence, 18-24 h; for cell number change: measured here: cell count max response, cells fed with added oleic acid
In short: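 Drosophila S3 cells loaded with oleic acid (400 uM, as added) and compounds at several concentrations; lipid droplets imaged by 488-nm laser-scanning cytometry, 500–530 nm intensity and object ratio to cell channel. Percent activity normalized to 20 uM Triacsin C.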

[1] = measured here: lipid fluorescence (Fed channel) AC50, cells fed with added oleic acid
[2] = measured here: cell number channel AC50, cells fed with added oleic acid

Structure (SMILES) | cell number change [%] | AC50 [1] | AC50 [2]
Cc1cc(C)c(C(=O)OCCNC(=O)c2cccnc2)cc1C | -15 | 2.06 µM [rising, partial curve, poor fit] | –
COc1cc2nc(N3CCNCC3)nc(N)c2cc1OC | -5.81 | – | 6.51 µM [falling, single point]
c1ccc(-c2[nH]ncc2CN2CCc3ccccc3C2)cc1 | -43.3 | 0.517 µM [falling, full curve] | 0.92 µM [falling, full curve]
Cc1onc(-c2c(F)cccc2Cl)c1C(=O)NC1CCCCCC1 | -7.89 | – | –
COc1cnn(-c2ccccc2)c(=O)c1SCc1ccc(Cl)c(Cl)c1 | -27.8 | – | –
Cc1ccc(C)c(S(=O)(=O)N2CCN(C(=O)CSc3ccccc3)CC2)c1 | 2.7 | 0.651 µM [rising, partial curve, poor fit] | –
CCCCn1nc2cc(C(=O)NCc3cc(C(F)(F)F)cc(C(F)(F)F)c3)ccc2c1OC | – | 0.58 µM [rising, single point] | –
Cc1ccc(/C=N/NC(=O)c2ccc(-n3cnnn3)cc2)cc1 | 6.19 | 32.6 µM [rising, single point] | –
O=[N+]([O-])c1ccc(S(=O)(=O)Nc2nc3ccccc3nc2Nc2ccccc2)cc1 | -23.5 | 2.91 µM [falling, full curve, poor fit] | 3.66 µM [falling, single point]
O=C(NC(=S)NCC1CCCO1)c1ccc(Cl)cc1 (stereo not given) | 14.7 | 0.517 µM [rising, full curve, poor fit] | –
C[C@H]1CN=C(Nc2ccccc2)N1CC1CCC1 | 18.6 | 29.1 µM [rising, single point] | –
Cc1ccc(NS(=O)(=O)c2ccc(C(=O)N3CCCCCCC3)cc2)cc1 | -21.1 | 6.51 µM [rising, single point] | –
COc1cc([N+](=O)[O-])ccc1NC(=O)CSc1nncn1-c1cccnc1 | 4.58 | – | –
Cc1ccccc1NC(=O)NCC1CCN(C(=O)OC(C)(C)C)CC1 | -27.9 | 16.4 µM [falling, partial curve, poor fit] | –
COCCCNC(=O)CCc1ccc(S(=O)(=O)Nc2ccc(C)cc2)cc1 | 139 | – | 5.17 µM [rising, partial curve]
CC(=O)c1ccc(NC(=O)C2CCCN(S(=O)(=O)c3c(C)[nH]c(=O)[nH]c3=O)C2)cc1 (stereo not given) | -29.6 | 1.16 µM [falling, full curve] | –
OC/C(Br)=C(\Br)CO | -0.565 | 8.2 µM [rising, single point] | –
O=C(CN1C(=O)NC2(CCCCCC2)C1=O)NC1CCCCCCC1 | -0.541 | 2.59 µM [falling, partial curve] | 4.11 µM [falling, single point]
CN(C)CC1CCCCC1OC(=O)c1ccc(S(=O)(=O)N(C)c2ccccc2)cc1 (stereo not given) | -24.6 | 0.58 µM [falling, single point] | –
O=C(CCCC(=O)N(CC(=O)NC1CCCCC1)Cc1ccccc1)Nc1ccccn1 | 33.5 | – | 18.4 µM [rising, single point]

Arranged by length of the SMILES (smallest number first): 3 of the compounds above.
Structure (SMILES) | cell number change [%] | AC50 [1] | AC50 [2]
O=C(NC(=S)NCC1CCCO1)c1ccc(Cl)cc1 (stereo not given) | 14.7 | 0.517 µM [rising, full curve, poor fit] | –
COCCCNC(=O)CCc1ccc(S(=O)(=O)Nc2ccc(C)cc2)cc1 | 139 | – | 5.17 µM [rising, partial curve]
Cc1ccc(C)c(S(=O)(=O)N2CCN(C(=O)CSc3ccccc3)CC2)c1 | 2.7 | 0.651 µM [rising, partial curve, poor fit] | –

Later entries.

Structure (SMILES) | cell number change [%] | AC50 [1] | AC50 [2]
O=C(NC1CC2CCCC(C1)N2Cc1ccccc1)c1ccc([N+](=O)[O-])cc1 (stereo not given) | 11.1 | 2.59 µM [falling, single point] | –
Cc1ccc(N(CC(O)CN(C)C)S(=O)(=O)c2ccccc2)cc1 (stereo not given) | – | 5.8 µM [falling, partial curve] | –
CC(C)(C)OC(=O)CN1C(=O)NC2(CCCc3ccccc32)C1=O (stereo not given) | 20.3 | 23.1 µM [rising, single point] | –
C[C@H](N)c1nnc(SCC(N)=O)o1 | -7.34 | – | –
CCN(CC(=O)Nc1cccc(OC)c1)C(=O)c1ccc(C)s1 | – | 0.731 µM [rising, single point] | –
Cc1sc2c(c1C)CN(Cc1ccncc1)CN2C(=O)c1ccco1 | – | – | 1.16 µM [rising, partial curve]
CCOc1cc(C#N)ccc1OCC(=O)NNC(=O)CC1CCS(=O)(=O)C1 (stereo not given) | 21.5 | – | –
COc1ccc(S(N)(=O)=O)cc1C(=O)NCCCN1CCN(c2cccc(Cl)c2)CC1 | 186 | 0.00461 µM [rising, full curve, poor fit] | 0.411 µM [rising, partial curve, poor fit]
O=c1c(/C=C(\O)c2ccccc2)nc2ccccc2n1-c1ccccc1 | 65.7 | 2.31 µM [rising, partial curve] | 2.91 µM [rising, full curve]
CCn1c(SCC(=O)N(C)CC(=O)Nc2ccc(OC)cc2)nnc1-c1ccco1 | 11.5 | – | –
COc1ccc(OC)c(C2CC(=O)Nc3cc(OC)c(OC)c(OC)c32)c1 (stereo not given) | 58.6 | 1.46 µM [rising, full curve] | 2.06 µM [rising, partial curve]
O=C(NCCCNC(=O)C(F)(F)C(F)F)C(F)(F)C(F)F | -38.6 | 29.1 µM [falling, single point] | 29.1 µM [falling, single point]
Cc1cc(Cl)cc(Cl)c1OCCOc1cccc2cccnc12 | 10.8 | 20.6 µM [rising, partial curve] | 1.3 µM [rising, full curve]
OCCOCCNc1ncnc2c1c(-c1ccccc1)cn2-c1ccccc1 | -10.2 | 29.1 µM [falling, single point] | –
Cc1ccccc1C1c2[nH]c3ccccc3c2CCN1Cc1cccn1-c1ncccn1 (stereo not given) | 22.3 | – | 1.16 µM [rising, full curve, poor fit]
C/C(=N\NC(=O)Cc1cccn1C)c1cccc2ccccc12 | -42.4 | 16.4 µM [rising, partial curve] | 8.2 µM [falling, partial curve]
O=C(NCc1ccco1)c1cccn2c(=O)c3cc4ccccc4cc3nc12 | 56.5 | 2.06 µM [rising, partial curve] | 0.517 µM [rising, full curve, poor fit]
CC1CCN(Cc2c(C(=O)N/N=C/c3cc(Cl)ccc3O)nnn2-c2nonc2N)CC1 | 23.9 | 29.1 µM [rising, single point] | –
COc1ccc(NC(=O)CSc2nnc(-c3ccccc3C)n2C)cc1 | 24.4 | 0.651 µM [falling, full curve] | –
COc1ccccc1NC(=O)N1CCCC1C(=O)NC12CC3CC(CC(C3)C1)C2 (stereo not given) | -71.5 | 20.6 µM [falling, partial curve] | 8.2 µM [falling, partial curve]

Structure (SMILES) | cell number change [%] | AC50 [1] | AC50 [2]
N#Cc1ccc(NC(=O)c2cc(-c3cccs3)on2)cc1 | -7.87 | 1.16 µM [falling, single point] | 1.3 µM [falling, single point]
Oc1[nH]c2ccc(Br)cc2c1N=Nc1ccc(F)cc1 | -18.8 | – | –
O=C(O)c1ccc(-n2c(/C=C/c3cccc([N+](=O)[O-])c3)nc3ccccc3c2=O)cc1 | 23.4 | – | –
COc1cccc(C(=O)NNC(=O)C(=O)Nc2cccc(Cl)c2C)c1 | -19 | 29.1 µM [rising, single point] | –
O=C(O)c1c(C(=O)O)c(-c2ccc(Br)cc2)n2c1CSC2 | -33.6 | 14.6 µM [falling, partial curve] | 20.6 µM [falling, partial curve]
O=c1c2[nH]c3ccccc3c2ncn1CCN1CCCCC1 | 1.53 | 3.26 µM [falling, single point] | –
COc1ccc(CCC(=O)OCC(=O)Nc2ccc(C)c(S(=O)(=O)N(C)C)c2)cc1 | 2.97 | – | 0.517 µM [rising, partial curve, poor fit]
CC(/C=N/NC(=O)CSc1ccccn1)=C\c1ccc(C(C)C)cc1 | 9.92 | 16.4 µM [rising, partial curve] | –
COc1ccc(CC(=O)Nc2nc3n(n2)C(c2ccccc2)CC(=O)N3)cc1OC (stereo not given) | -12.9 | 25.9 µM [falling, single point] | –
Clc1ccccc1OCc1nc(-c2ccc(Br)o2)no1 | – | 0.651 µM [rising, full curve, poor fit] | –
O=C(C1CCCN(S(=O)(=O)c2cccnc2)C1)N1CCN(c2ccccn2)CC1 (stereo not given) | -1.37 | 1.46 µM [rising, full curve] | –
COC(=O)c1ccccc1S(=O)(=O)NNC(=O)C1COc2ccccc2O1 (stereo not given) | 4.11 | – | 5.8 µM [falling, single point]
CCCCC(=O)OCc1c(-c2cccc(OC)c2)ncc2ccccc12 | -9.27 | 0.116 µM [rising, full curve, poor fit] | –
CS(=O)(=O)N(CCc1ccccc1)CC(=O)NCc1ccc2c(c1)OCO2 | 61.8 | 23.1 µM [rising, partial curve] | 10.3 µM [rising, partial curve]
O=C(CN(CCc1ccccc1)S(=O)(=O)c1ccc(Cl)cc1)N/N=C/c1ccc2c(c1)OCO2 | -4.36 | 1.3 µM [rising, full curve, poor fit] | –
O=C(NCC1CCCO1)c1c(O)nc2sccn2c1=O (stereo not given) | -3.31 | 6.51 µM [rising, single point] | –
COc1cc2c3c(c1OC)C1(C=CC(=NO)C=C1)CC3N(C(C)=O)CC2 (stereo not given) | -15.1 | – | 0.103 µM [falling, full curve, poor fit]
O=C(CN1CCCCCC1)Nc1cccc([N+](=O)[O-])c1 | -34.5 | – | 2.06 µM [falling, single point]
O=C(NCCN1CCCC1)C(c1ccccc1)c1ccccc1 | -43.8 | 0.13 µM [falling, full curve, poor fit] | 32.6 µM [falling, partial curve]

Exported in CSV form: part of the list above
Structure (SMILES),cell number change [%],AC50 [1],AC50 [2]
O=C(O)c1ccc(-n2c(/C=C/c3cccc([N+](=O)[O-])c3)nc3ccccc3c2=O)cc1,23.4,–,–
COc1cccc(C(=O)NNC(=O)C(=O)Nc2cccc(Cl)c2C)c1,-19,"29.1 µM [rising, single point]",–
